# Some of these results come from one statement about several compounds together.
# Tested on: Cyclooxygenase enzyme (COX-1 and COX-2)
# Experiment: Cyclooxygenase Enzyme Activity Assay
# Format: cell-based, human
# Settings: PGE2 by ELISA in THP-1 (COX-1) / HOSC (COX-2) cell supernatants; isoform not stated
row,Compound,IC50 [µM]
1,"NC(Cc1ccccc1)C(=O)Nc1ccc2c(-c3ccncc3)c(-c3ccc(F)cc3)[nH]c2n1 (racemic) [Compound 87, 6-(3′-phenyl-1′-oxo-2′-D,L-aminopropylamino)-3-(4-pyridyl)-2-(4-fluorophenyl)-7-aza-indole]",≤ 5
2,"CS(=O)(=O)Nc1ccc2c(-c3ccncc3)c(-c3ccc(F)cc3)[nH]c2n1 [Compound 93, 6-(methylsulfonylamino)-3-(4-pyridyl)-2-(4-fluorophenyl)-7-aza-indole]",≤ 5
3,"CN[C@@H](C)C(=O)Nc1ccc2c(-c3ccncc3)c(-c3ccc(F)cc3)[nH]c2n1 [Compound 127, 6-(1′-oxo-2′S-N-methylaminopropylamino)-3-(4-pyridyl)-2-(4-fluorophenyl)-7-aza-indole]",≤ 20
4,"Fc1ccc(-c2[nH]c3ccccc3c2-c2ccncc2)cc1 [Compound 3, 3-(4-pyridyl)-2-(4-fluorophenyl)indole]",≤ 5
5,"NCCCCCC(=O)Nc1ccc2c(-c3ccncc3)c(-c3ccc(F)cc3)[nH]c2n1 [Compound 79, 6-(6′-amino-1′-oxo-hexylamino)-3-(4-pyridyl)-2-(4-fluorophenyl)-7-aza-indole]",≤ 20
